{
  "source": "patent US10857167B2",
  "about": "“Use of oligosaccharide compositions to enhance weight gain” (Children's Hospital Medical Center, priority 2015, dated 2020)",
  "system": "distal small bowel gene expression",
  "experiment": "RNA sequencing / transcriptional analysis of small bowel 56 days after ICR (2′-FL signature response)",
  "type": "in vivo, mouse",
  "source_text": "Luminal small bowel contents were expressed into AllProtect Tissue Reagent (Qiagen Inc, CA). Bacterial DNA was extracted using the AllPrep DNA/RNA Mini Kit (Qiagen Inc, CA), according to kit instructions and prior to sequencing (described below). Small bowel tissue samples for RNA were placed into RNA Later (Life Technologies, NY). RNA extraction was accomplished following Qiagen RNeasy Plus Kit instruction (Qiagen Inc, CA). All nucleic acid samples were then stored at -80 Celsius until sequenced (described below). Transcriptional analysis was carried out on resected and harvested small bowel samples obtained from operated mice taken to 8 weeks. Murine RNA sequencing libraries were prepared from approximately 1.5 μg RNA using the TruSeq RNA Sample Preparation Kit (Illumina, Calif.) and sequenced using the HiSeq 2000 Sequencing System (Illumina, Calif.) with single-end 50 bp reads. Following removal of primers and barcodes, sequences were aligned to the mm10 genome using reference annotations from UCSC (Rosenbloom et al. (2015) Nucleic acids research 43: […]-681) (n=36,186 entities). Aligned reads were quantified and used to compute reads per kilobase per million mapped reads (RPKM); raw counts were then normalized using the DESeq algorithm and each harvested sample was baselined to its own resected sample. A filter was applied to the data, requiring at least three reads in all samples of at least one of the four experimental conditions (n=14,489 entities). The data discussed in this publication have been deposited in NCBI's Gene Expression Omnibus and are accessible through NCBI Gene Expression Omnibus (GEO) Series accession number GSE72590. Edgar et al. (2002) Nucleic acids research 30: 207-210. In order to characterize the impact of 2'-FL supplementation while accounting for the effect of ileoecal resection, a t-test was applied between resected and harvested samples within control and experimental animals. Significance was set at a p-value of ≤0.05 and a fold change of 3, which generated 2,576 differentially regulated entities across two comparisons. Gene set unions and intersections of the control and experimental gene sets were identified through Venn diagrams. From the master list, the gene list specific to animals supplemented with 2'-FL were removed in order to identify genes differentially regulated only by ICR (n=546 entities); this gene set characterizes the adaptive response. Further, the 2'-FL response (n=2,030 entities) was identified by removing the adaptive response signature described above from the master list, leaving only genes regulated by 2'-FL supplementation after ICR which were not found in the non-supplemented adaptive response. Heatmaps were generated using hierarchical clustering with the Pearson's Centered distance metric and the average linkage rule; both entities and samples were clustered. All genomic analyses described above were performed in Strand NGS (Strand Life Sciences, CA). Gene list functional enrichment was initially discovered using ToppFun, a member of the ToppGene Suite. Chen et al. (2009) Nucleic acids research 37: […]-311. No statistical correction was selected. Gene lists were further analyzed using ClueGO, a plugin for Cytoscape designed to decipher functionally grouped gene ontology and pathway annotation networks. Bindea et al. (2009) Bioinformatics 25: 1091-1093. At the time of data analysis, the annotation files were updated from sources to Jan. 1, 2015. “GO Term Fusion” was enabled to manage ontologic term redundancy and network specificity was set to medium. Results were restricted to pathways with p≤0.05 using Benjamini-Hochberg correction and Kappa scoring was set to 0.4. Biocyc annotations were assigned a rectangle, gene ontology biologic processes were assigned an ellipse, and […] annotations were assigned a diamond shape. No meaning was assigned to size or color. […]",
  "note": "Further values from the same series stand in other lists.",
  "data": [
    {"smiles": "C[C@@H]1O[C@@H](O[C@H]2[C@H](O[C@H]3[C@H](O)[C@@H](O)C(O)O[C@@H]3CO)O[C@H](CO)[C@H](O)[C@@H]2O)[C@@H](O)[C@H](O)[C@@H]1O", "note": "(stereo partly shown) [2′-FL, 2′-fucosyllactose]", "values": [
      {"measurement": "Fold Change (Pre- to Post-op)", "setting": "gene St3gal2", "result": "−3.178"},
      {"measurement": "Fold Change (Pre- to Post-op)", "setting": "gene Stard13", "result": "−3.362"},
      {"measurement": "Fold Change (Pre- to Post-op)", "setting": "gene Steap4", "result": "−4.915"},
      {"measurement": "Fold Change (Pre- to Post-op)", "setting": "gene Stim1", "result": "−3.038"},
      {"measurement": "Fold Change (Pre- to Post-op)", "setting": "gene Stk32a", "result": "−3.423"},
      {"measurement": "Fold Change (Pre- to Post-op)", "setting": "gene Ston1", "result": "−7.253"},
      {"measurement": "Fold Change (Pre- to Post-op)", "setting": "gene Stox2", "result": "−6.347"},
      {"measurement": "Fold Change (Pre- to Post-op)", "setting": "gene Strn", "result": "−3.934"},
      {"measurement": "Fold Change (Pre- to Post-op)", "setting": "gene Stxbp1", "result": "−5.639"},
      {"measurement": "Fold Change (Pre- to Post-op)", "setting": "gene Sufu", "result": "−8.462"},
      {"measurement": "Fold Change (Pre- to Post-op)", "setting": "gene Sun2", "result": "−3.705"},
      {"measurement": "Fold Change (Pre- to Post-op)", "setting": "gene Supt6", "result": "−3.709"},
      {"measurement": "Fold Change (Pre- to Post-op)", "setting": "gene Sv2a", "result": "−5.005"},
      {"measurement": "Fold Change (Pre- to Post-op)", "setting": "gene Syde1", "result": "−4.563"},
      {"measurement": "Fold Change (Pre- to Post-op)", "setting": "gene Sympk", "result": "−3.344"},
      {"measurement": "Fold Change (Pre- to Post-op)", "setting": "gene Syne1", "result": "−5.644"},
      {"measurement": "Fold Change (Pre- to Post-op)", "setting": "gene Synj2", "result": "−3.88"},
      {"measurement": "Fold Change (Pre- to Post-op)", "setting": "gene Szt2", "result": "−3.549"},
      {"measurement": "Fold Change (Pre- to Post-op)", "setting": "gene Tacc1", "result": "−3.983"},
      {"measurement": "Fold Change (Pre- to Post-op)", "setting": "gene Tacc2", "result": "−4.161"},
      {"measurement": "Fold Change (Pre- to Post-op)", "setting": "gene Tacr1", "result": "−5.076"},
      {"measurement": "Fold Change (Pre- to Post-op)", "setting": "gene Tacr2", "result": "−3.784"},
      {"measurement": "Fold Change (Pre- to Post-op)", "setting": "gene Taf3", "result": "−4.215"},
      {"measurement": "Fold Change (Pre- to Post-op)", "setting": "gene Taf15", "result": "−3.475"},
      {"measurement": "Fold Change (Pre- to Post-op)", "setting": "gene Tagln", "result": 3.03},
      {"measurement": "Fold Change (Pre- to Post-op)", "setting": "gene Taok3", "result": "−4.099"},
      {"measurement": "Fold Change (Pre- to Post-op)", "setting": "gene Tbc1d2b", "result": "−3.66"},
      {"measurement": "Fold Change (Pre- to Post-op)", "setting": "gene Tbc1d9", "result": "−3.213"},
      {"measurement": "Fold Change (Pre- to Post-op)", "setting": "gene Tbc1d9b", "result": "−3.102"},
      {"measurement": "Fold Change (Pre- to Post-op)", "setting": "gene Tcf7", "result": "−3.908"},
      {"measurement": "Fold Change (Pre- to Post-op)", "setting": "gene Tchh", "result": "−3.639"},
      {"measurement": "Fold Change (Pre- to Post-op)", "setting": "gene Tcof1", "result": "−5.131"},
      {"measurement": "Fold Change (Pre- to Post-op)", "setting": "gene Tead1", "result": "−5.051"},
      {"measurement": "Fold Change (Pre- to Post-op)", "setting": "gene Tek", "result": "−3.204"},
      {"measurement": "Fold Change (Pre- to Post-op)", "setting": "gene Tenc1", "result": "−6.479"},
      {"measurement": "Fold Change (Pre- to Post-op)", "setting": "gene Tert", "result": "−3.356"},
      {"measurement": "Fold Change (Pre- to Post-op)", "setting": "gene Tet1", "result": "−3.292"},
      {"measurement": "Fold Change (Pre- to Post-op)", "setting": "gene Tet3", "result": "−4.82"},
      {"measurement": "Fold Change (Pre- to Post-op)", "setting": "gene Tfcp2l1", "result": "−5.377"},
      {"measurement": "Fold Change (Pre- to Post-op)", "setting": "gene Tgfb1", "result": "−3.309"},
      {"measurement": "Fold Change (Pre- to Post-op)", "setting": "gene Tgfb1i1", "result": "−4.123"},
      {"measurement": "Fold Change (Pre- to Post-op)", "setting": "gene Tgfb2", "result": "−3.975"},
      {"measurement": "Fold Change (Pre- to Post-op)", "setting": "gene Thada", "result": "−5.268"},
      {"measurement": "Fold Change (Pre- to Post-op)", "setting": "gene Thsd4", "result": "−6.921"},
      {"measurement": "Fold Change (Pre- to Post-op)", "setting": "gene Ticrr", "result": "−3.16"},
      {"measurement": "Fold Change (Pre- to Post-op)", "setting": "gene Tie1", "result": "−3.806"},
      {"measurement": "Fold Change (Pre- to Post-op)", "setting": "gene Tigd5", "result": "−3.757"},
      {"measurement": "Fold Change (Pre- to Post-op)", "setting": "gene Timp4", "result": "−5.593"},
      {"measurement": "Fold Change (Pre- to Post-op)", "setting": "gene Tll1", "result": "−3.264"},
      {"measurement": "Fold Change (Pre- to Post-op)", "setting": "gene Tln1", "result": "−5.597"},
      {"measurement": "Fold Change (Pre- to Post-op)", "setting": "gene Tln2", "result": "−4.77"},
      {"measurement": "Fold Change (Pre- to Post-op)", "setting": "gene Tm9sf4", "result": "−3.106"},
      {"measurement": "Fold Change (Pre- to Post-op)", "setting": "gene Tmed8", "result": "−4.234"},
      {"measurement": "Fold Change (Pre- to Post-op)", "setting": "gene Tmem2", "result": "−3.098"},
      {"measurement": "Fold Change (Pre- to Post-op)", "setting": "gene Tmem8b", "result": "−6.932"},
      {"measurement": "Fold Change (Pre- to Post-op)", "setting": "gene Tmem59l", "result": "−6.998"},
      {"measurement": "Fold Change (Pre- to Post-op)", "setting": "gene Tmem63a", "result": "−3.046"},
      {"measurement": "Fold Change (Pre- to Post-op)", "setting": "gene Tmem104", "result": "−5.425"},
      {"measurement": "Fold Change (Pre- to Post-op)", "setting": "gene Tmem130", "result": "−6.718"},
      {"measurement": "Fold Change (Pre- to Post-op)", "setting": "gene Tmem131", "result": "−4.328"},
      {"measurement": "Fold Change (Pre- to Post-op)", "setting": "gene Tmem163", "result": "−5.177"}
    ]}
  ]
}
